Source: US20150147310A1
No constants are given. Whether binding was seen depends on the method and setting. In cells and extracts the contact can be indirect. Some results given as binding are weak or reduced against the parent protein; the word gives no strength. Where a sequence is shown, tags or fusion partners need not be part of it.

The chains behind the UniProt entries cited, without tags or fusion partners. Residues count along the entry.
UniProt Q91ZX7, residues 20-4545: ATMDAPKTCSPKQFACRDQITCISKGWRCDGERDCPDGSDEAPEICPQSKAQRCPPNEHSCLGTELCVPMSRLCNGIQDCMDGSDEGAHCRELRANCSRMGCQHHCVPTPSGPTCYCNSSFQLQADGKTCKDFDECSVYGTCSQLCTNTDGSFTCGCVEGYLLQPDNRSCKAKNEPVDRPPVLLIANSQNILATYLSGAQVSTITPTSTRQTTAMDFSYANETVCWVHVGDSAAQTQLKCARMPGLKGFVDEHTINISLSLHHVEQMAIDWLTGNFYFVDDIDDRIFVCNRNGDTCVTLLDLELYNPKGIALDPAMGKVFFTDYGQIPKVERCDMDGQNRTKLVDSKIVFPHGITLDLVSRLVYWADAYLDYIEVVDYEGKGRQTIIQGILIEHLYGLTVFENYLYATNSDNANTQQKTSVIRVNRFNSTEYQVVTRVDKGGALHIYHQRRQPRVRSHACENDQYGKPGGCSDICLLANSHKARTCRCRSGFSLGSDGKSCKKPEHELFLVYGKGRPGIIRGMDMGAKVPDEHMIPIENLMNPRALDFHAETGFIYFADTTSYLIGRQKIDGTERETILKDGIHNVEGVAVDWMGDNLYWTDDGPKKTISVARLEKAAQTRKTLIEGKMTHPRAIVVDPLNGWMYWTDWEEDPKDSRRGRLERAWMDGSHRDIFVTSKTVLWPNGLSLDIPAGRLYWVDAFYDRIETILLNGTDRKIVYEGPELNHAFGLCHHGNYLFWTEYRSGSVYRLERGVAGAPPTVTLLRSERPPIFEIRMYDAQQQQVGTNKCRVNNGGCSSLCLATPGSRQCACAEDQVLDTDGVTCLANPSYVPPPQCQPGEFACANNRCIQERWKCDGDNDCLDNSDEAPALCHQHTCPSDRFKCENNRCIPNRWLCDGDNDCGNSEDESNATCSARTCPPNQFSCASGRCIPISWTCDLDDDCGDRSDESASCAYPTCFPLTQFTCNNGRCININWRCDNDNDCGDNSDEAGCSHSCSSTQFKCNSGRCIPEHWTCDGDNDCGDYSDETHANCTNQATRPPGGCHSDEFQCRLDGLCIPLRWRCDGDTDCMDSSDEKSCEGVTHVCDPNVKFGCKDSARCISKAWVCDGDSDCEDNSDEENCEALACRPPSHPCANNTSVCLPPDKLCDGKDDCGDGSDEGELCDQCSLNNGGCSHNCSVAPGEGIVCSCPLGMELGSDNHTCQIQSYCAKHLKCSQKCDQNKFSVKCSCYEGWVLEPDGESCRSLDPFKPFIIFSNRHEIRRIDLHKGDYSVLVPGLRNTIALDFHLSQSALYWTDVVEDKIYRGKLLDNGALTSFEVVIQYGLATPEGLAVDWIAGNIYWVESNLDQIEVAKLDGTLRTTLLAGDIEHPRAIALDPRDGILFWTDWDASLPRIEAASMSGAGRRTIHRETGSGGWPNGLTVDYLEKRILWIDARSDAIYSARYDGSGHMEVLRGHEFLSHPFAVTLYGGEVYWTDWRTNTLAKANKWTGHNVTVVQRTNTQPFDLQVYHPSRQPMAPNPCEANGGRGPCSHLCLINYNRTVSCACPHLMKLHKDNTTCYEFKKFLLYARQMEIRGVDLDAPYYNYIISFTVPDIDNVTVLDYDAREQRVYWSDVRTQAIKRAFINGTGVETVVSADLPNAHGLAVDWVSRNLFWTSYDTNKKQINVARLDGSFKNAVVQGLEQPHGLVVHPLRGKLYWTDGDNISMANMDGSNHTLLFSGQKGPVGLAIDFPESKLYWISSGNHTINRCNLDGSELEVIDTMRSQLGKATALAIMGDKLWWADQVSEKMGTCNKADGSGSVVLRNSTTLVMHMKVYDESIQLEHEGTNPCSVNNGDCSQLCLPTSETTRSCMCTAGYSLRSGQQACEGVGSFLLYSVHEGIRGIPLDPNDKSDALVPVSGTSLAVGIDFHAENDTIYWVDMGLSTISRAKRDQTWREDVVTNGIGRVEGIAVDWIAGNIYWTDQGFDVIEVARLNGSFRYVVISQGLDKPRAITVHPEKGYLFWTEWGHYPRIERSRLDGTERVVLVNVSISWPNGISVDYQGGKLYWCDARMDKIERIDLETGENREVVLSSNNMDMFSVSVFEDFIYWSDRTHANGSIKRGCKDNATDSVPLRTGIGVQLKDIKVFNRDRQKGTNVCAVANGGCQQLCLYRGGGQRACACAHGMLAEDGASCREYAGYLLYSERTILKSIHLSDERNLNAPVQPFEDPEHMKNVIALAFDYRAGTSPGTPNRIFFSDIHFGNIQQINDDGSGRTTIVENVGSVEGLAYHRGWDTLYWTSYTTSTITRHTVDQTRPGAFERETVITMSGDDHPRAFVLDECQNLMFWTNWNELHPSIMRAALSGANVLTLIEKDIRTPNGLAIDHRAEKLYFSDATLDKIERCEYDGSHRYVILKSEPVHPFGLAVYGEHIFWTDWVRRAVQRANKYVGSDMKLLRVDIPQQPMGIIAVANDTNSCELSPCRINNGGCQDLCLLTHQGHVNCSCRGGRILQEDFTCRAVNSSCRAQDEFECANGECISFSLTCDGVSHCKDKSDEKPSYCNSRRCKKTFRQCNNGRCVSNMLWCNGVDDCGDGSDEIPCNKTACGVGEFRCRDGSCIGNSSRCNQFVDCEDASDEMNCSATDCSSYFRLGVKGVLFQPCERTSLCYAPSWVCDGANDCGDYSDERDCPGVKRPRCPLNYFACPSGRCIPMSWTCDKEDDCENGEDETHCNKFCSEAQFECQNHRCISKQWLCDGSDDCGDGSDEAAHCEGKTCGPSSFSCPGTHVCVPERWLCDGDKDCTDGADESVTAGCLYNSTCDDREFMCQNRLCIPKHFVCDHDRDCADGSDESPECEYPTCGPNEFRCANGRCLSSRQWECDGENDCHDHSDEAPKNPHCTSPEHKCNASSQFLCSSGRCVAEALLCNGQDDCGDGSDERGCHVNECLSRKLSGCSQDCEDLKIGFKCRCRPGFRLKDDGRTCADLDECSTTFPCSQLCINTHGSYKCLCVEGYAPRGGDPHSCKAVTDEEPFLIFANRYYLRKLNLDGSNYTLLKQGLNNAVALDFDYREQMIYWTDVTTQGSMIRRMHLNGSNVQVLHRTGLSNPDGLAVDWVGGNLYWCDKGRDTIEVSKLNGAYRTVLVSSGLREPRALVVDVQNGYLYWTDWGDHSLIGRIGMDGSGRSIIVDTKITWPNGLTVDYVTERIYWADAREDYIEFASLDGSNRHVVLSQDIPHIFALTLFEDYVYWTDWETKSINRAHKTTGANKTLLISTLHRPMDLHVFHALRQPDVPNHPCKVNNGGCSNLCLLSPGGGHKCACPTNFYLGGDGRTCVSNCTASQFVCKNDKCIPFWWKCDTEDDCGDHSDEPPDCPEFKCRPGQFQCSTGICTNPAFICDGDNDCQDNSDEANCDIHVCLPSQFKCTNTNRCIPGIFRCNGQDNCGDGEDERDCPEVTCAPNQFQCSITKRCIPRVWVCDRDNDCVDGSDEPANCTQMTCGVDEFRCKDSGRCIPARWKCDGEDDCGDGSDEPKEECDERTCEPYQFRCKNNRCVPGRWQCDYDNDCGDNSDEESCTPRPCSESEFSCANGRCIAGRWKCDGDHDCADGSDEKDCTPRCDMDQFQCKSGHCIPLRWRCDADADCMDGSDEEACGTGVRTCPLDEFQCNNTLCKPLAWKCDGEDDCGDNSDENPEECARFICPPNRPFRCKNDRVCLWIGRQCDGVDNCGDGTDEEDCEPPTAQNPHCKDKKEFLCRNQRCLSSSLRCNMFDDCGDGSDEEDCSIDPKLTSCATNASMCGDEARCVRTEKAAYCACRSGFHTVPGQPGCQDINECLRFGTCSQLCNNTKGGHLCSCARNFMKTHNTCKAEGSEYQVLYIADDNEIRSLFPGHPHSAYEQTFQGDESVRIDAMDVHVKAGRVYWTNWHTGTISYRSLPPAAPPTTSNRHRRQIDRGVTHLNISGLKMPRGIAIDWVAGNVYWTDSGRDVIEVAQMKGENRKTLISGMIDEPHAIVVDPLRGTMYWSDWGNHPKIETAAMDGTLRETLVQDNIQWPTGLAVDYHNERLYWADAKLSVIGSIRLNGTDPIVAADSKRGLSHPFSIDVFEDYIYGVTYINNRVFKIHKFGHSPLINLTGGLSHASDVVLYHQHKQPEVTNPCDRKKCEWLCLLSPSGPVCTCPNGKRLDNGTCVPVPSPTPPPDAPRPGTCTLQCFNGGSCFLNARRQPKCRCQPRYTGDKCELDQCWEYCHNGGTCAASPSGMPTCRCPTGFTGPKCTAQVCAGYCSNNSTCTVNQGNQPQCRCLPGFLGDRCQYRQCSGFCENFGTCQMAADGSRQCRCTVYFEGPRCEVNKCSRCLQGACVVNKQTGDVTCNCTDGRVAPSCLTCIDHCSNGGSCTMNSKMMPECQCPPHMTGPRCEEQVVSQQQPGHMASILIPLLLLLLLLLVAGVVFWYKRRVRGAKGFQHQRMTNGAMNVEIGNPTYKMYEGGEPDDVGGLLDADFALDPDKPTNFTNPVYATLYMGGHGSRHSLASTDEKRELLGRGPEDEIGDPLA

Legend:
[1] = molecular target: LRP1 (in RAW 264.7 cells) (UniProt Q91ZX7); experiment: co-immunoprecipitation, western blots (legend of FIG. 14B)
[2] = molecular target: LRP1 (in RAW 264.7 cells) (UniProt Q91ZX7); experiment: co-immunoprecipitation from RAW 264.7 cells with anti-IDUA antibody, western blot for LRP1

B1: An2-IDUA (Angiopep-2 fused to human alpha-L-iduronidase) (enzyme)
chain: TFFYGGSRGKRNNFKTEEYEAPHLVHVDAARALWPLRRFWRSTGFCPPLPHSQADQYVLSWDQQLNLAYVGAVPHRGIKQVRTHWLLELVTTRGSTGRGLSYNFTHLDGYLDLLRENQLLPGFELMGSASGHFTDFEDKQQVFEWKDLVSSLARRYIGRYGLAHVSKWNFETWNEPDHHDFDNVSMTMQGFLNYYDACSEGLRAASPALRLGGPGDSFHTPPRSPLSWGLLRHCHDGTNFFTGEAGVRLDYISLHRKGARSSISILEQEKVVAQQIRQLFPKFADTPIYNDEADPLVGWSLPQPWRADVTYAAMVVKVIAQHQNLLLANTTSAFPYALLSNDNAFLSYHPHPFAQRTLTARFQVNNTRPPHVQLLRKPVLTAMGLLALLDEEQLWAEVSQAGTVLDSNHTVGVLASAHRPQGPADAWRAAVLIYASDDTRAHPNRSVAVTLRLRGVPPGPGLVYVTRYLDNGLCSPDGEWRRLGRPVFPTAEQFRRMRAAEDPVAAAPRPLPAGGRLTLRPALRLPSLLLVHVCARPEKPPGQVTRLRALPLTQGQLVLVWSDEHVGSKCLWTYEIQFSQDGKAYTPVSRKPSTFNLFVFSPDTGAVSGSYRVRALDYWARPGPFSDPVPYLEVPVPRGPPSPGNP
B1 was tested, and the binding [1] was “binds” and the binding [2] was “binds”.
